The values that follow come from doi:10.1101/2022.09.09.507316.

By UniProt entry, the sequences of proteins in these tests, tags left out. Residues count along the entry.
UniProt P09055, residues 21-798: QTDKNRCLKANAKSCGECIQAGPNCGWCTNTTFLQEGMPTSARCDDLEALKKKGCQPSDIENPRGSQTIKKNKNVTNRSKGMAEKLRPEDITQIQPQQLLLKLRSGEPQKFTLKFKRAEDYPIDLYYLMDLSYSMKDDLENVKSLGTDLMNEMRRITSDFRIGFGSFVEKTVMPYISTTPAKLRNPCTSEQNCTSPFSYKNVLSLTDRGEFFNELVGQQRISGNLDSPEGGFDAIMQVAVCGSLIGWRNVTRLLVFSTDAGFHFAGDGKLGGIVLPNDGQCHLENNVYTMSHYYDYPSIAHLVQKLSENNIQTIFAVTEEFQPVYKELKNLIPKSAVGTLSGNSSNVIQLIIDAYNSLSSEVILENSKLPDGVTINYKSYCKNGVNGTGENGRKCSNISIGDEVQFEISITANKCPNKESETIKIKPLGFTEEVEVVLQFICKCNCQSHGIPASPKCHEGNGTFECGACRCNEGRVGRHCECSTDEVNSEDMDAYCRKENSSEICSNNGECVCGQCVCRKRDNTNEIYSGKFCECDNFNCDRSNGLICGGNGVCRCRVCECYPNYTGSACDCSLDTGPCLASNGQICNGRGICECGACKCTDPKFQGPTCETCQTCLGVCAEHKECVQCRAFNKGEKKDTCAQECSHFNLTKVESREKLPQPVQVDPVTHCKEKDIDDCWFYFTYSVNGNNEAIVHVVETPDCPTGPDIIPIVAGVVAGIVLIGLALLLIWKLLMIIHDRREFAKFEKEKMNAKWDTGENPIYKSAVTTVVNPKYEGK
UniProt Q91ZX7, residues 20-4545: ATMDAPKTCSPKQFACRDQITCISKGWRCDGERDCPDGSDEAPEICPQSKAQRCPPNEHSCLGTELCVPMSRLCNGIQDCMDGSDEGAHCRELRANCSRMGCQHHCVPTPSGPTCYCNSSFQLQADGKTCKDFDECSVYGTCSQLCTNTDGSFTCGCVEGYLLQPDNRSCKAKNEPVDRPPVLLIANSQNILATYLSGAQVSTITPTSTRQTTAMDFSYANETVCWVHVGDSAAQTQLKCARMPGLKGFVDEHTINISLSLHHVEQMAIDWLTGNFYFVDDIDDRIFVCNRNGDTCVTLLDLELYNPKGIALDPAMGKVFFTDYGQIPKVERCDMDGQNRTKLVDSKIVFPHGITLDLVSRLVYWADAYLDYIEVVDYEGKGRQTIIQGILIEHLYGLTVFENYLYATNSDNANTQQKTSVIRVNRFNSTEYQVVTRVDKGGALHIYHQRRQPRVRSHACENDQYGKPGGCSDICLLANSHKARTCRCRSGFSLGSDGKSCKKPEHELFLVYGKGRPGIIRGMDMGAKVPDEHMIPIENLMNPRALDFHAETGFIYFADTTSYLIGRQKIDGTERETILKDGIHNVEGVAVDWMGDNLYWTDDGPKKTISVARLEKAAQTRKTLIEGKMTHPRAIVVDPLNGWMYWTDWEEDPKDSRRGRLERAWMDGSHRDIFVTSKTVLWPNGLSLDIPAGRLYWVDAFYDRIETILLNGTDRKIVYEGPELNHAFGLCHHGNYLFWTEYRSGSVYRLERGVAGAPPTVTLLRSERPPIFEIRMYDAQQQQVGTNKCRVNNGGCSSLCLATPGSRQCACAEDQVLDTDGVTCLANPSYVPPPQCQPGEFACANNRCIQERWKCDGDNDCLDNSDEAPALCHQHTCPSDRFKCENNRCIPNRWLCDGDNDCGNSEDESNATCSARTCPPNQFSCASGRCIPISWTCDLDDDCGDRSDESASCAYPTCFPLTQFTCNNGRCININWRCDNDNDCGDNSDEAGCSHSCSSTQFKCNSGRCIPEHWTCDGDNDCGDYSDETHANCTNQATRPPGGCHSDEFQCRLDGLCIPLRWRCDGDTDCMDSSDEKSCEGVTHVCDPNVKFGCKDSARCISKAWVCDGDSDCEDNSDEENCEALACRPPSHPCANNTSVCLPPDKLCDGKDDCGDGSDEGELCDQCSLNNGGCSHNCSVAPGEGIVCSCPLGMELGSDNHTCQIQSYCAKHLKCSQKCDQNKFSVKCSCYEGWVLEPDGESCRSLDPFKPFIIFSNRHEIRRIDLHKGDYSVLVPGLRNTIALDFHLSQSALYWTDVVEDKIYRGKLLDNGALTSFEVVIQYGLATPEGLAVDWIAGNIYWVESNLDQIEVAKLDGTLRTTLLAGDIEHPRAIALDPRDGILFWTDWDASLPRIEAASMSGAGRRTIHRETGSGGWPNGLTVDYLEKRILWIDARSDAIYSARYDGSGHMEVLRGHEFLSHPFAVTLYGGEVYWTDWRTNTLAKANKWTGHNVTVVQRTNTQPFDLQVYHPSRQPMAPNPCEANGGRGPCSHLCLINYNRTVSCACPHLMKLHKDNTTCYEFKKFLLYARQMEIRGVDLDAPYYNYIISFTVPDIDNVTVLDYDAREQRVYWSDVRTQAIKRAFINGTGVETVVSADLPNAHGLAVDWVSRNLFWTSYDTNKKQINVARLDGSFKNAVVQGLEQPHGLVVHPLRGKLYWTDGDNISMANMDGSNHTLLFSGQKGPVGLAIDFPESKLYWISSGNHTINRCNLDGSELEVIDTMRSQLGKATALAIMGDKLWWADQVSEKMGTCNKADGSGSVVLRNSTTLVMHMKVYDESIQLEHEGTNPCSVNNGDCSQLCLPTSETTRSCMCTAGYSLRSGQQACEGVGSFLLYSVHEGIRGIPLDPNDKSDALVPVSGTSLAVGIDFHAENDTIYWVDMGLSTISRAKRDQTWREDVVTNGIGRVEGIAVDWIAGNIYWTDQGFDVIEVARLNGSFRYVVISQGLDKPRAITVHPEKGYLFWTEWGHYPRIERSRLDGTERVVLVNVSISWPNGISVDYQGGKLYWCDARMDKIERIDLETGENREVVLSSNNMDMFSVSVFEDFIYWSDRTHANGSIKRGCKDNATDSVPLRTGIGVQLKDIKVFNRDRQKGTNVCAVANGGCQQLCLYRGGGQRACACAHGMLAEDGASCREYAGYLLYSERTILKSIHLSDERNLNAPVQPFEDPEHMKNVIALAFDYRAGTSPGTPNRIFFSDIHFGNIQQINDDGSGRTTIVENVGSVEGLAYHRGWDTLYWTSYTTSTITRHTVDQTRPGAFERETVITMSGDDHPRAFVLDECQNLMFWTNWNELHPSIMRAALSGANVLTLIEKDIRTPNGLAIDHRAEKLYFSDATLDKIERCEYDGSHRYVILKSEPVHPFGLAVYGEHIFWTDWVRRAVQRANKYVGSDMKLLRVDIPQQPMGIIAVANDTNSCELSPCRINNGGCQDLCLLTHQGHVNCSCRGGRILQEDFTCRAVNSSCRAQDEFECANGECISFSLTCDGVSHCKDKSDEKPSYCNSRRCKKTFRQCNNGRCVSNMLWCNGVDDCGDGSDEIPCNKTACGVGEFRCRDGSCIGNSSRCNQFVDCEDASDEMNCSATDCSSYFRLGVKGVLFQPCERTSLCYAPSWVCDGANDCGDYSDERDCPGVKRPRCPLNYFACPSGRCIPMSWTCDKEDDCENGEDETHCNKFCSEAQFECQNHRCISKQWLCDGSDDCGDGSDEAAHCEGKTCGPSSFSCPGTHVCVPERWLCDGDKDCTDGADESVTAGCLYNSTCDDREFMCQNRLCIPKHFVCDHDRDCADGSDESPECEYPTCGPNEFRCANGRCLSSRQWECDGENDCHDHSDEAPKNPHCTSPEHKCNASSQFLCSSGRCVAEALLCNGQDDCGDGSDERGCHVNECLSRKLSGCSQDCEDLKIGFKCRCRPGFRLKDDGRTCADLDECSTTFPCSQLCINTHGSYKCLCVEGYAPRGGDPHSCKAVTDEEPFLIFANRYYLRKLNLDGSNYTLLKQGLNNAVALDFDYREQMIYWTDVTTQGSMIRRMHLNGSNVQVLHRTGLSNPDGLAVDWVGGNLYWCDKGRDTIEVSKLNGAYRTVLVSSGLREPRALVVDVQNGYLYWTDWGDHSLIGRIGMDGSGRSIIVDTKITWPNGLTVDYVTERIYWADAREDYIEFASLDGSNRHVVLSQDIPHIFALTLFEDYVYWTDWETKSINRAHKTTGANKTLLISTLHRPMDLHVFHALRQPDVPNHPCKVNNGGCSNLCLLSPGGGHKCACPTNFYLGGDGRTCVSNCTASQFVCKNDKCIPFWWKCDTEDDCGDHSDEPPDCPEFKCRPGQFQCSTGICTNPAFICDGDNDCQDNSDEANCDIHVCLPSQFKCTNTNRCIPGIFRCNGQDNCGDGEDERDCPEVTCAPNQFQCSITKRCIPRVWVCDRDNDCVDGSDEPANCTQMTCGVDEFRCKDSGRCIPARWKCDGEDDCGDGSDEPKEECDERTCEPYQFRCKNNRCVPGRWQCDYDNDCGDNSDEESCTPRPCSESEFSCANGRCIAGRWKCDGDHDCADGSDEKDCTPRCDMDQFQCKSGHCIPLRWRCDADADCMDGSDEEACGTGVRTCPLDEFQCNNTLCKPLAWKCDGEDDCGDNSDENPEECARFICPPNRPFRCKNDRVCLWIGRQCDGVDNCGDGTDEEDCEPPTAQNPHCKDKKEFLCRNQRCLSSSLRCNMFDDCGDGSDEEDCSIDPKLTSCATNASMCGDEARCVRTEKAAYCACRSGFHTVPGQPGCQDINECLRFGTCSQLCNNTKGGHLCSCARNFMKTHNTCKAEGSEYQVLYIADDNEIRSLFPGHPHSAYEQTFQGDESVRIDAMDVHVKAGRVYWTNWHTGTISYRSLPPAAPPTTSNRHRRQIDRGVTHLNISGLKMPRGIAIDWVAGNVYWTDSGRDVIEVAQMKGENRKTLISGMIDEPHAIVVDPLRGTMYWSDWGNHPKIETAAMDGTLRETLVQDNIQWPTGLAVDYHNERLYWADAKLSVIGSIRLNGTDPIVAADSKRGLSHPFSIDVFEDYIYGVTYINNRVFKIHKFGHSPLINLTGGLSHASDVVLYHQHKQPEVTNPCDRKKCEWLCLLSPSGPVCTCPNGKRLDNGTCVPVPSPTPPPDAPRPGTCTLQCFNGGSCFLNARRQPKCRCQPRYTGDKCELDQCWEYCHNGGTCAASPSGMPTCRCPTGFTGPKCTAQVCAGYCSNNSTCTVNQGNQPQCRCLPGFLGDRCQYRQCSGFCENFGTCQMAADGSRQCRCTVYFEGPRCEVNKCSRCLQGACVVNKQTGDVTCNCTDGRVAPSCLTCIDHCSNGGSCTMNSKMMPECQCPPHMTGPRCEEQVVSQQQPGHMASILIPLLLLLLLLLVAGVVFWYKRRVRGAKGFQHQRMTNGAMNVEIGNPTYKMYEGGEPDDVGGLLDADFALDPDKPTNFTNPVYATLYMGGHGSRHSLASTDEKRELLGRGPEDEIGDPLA

Read-outs that look alike come from different tables or passages of the source. Results are given in words; binding and its absence hold for the method and conditions named. Binding seen in cells or lysates may run through a third protein. Some entries that bind do so weakly or less than the wild type. Sequences can lack the tags named with a protein.

Test in all cases: co-IP
For assay [1], the target named is T1, murine Gpr126-myc tagged protein (mouse) (UniProt Q6F3F9).
T1 sequence: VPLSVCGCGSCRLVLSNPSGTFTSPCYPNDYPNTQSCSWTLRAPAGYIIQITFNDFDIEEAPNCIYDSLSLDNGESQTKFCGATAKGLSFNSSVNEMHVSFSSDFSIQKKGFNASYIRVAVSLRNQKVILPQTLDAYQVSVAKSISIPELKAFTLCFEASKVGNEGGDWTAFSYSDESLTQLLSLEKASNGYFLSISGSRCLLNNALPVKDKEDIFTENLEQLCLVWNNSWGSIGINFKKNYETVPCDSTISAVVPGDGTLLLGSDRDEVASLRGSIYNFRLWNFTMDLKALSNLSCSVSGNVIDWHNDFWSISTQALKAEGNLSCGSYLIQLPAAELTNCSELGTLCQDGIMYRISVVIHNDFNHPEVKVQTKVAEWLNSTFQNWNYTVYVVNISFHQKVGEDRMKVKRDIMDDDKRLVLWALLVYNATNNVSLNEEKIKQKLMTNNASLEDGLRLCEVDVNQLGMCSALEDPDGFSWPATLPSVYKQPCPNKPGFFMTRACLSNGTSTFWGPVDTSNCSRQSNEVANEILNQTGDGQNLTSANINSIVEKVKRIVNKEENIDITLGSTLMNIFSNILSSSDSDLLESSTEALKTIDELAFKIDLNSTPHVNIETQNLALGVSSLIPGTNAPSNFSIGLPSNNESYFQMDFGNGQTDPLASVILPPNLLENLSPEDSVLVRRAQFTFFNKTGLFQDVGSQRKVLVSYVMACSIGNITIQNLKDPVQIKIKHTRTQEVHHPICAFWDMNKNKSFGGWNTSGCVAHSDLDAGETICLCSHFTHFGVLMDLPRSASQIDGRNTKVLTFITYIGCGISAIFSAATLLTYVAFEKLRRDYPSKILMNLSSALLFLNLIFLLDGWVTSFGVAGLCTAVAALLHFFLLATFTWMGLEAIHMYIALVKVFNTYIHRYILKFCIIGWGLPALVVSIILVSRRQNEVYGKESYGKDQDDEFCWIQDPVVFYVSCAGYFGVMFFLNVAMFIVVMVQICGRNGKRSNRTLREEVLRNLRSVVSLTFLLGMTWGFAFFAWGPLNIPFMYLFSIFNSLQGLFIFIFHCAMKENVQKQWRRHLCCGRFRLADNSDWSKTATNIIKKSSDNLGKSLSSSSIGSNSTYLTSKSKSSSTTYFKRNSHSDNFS

The target in assay [2] is T1, murine Gpr126-myc tagged protein (mouse). This is another data set of the same source.
The target of assay [3] is β1-integrin (mouse (endogenous in iBECs)) (UniProt P09055).

With “β1-integrin (from UniProt P09055 21-798) (receptor)”, the binding result in assay [1] was “binds”.

“low-density lipoprotein receptor-related protein-1 (Lrp1) (from UniProt Q91ZX7 20-4545)”: the binding result in assay [1] was “binds”.

B1: α1-integrin (receptor, UniProt Q3V3R4 29-1179)
chain: FNVDVKNSMSFSGPVEDMFGYTVQQYENEEGKWVLIGSPLVGQPKARTGDVYKCPVGRERSMPCVKLDLPVNTSIPNVTEIKENMTFGSTLVTNPKGGFLACGPLYAYRCGHLHYTTGICSDVSPTFQVVNSFAPVQECSTQLDIVIVLDGSNSIYPWESVTAFLNDLLKRMDIGPKQTQVGIVQYGANVTHEFNLNKYSSTEEVLVAANKIGRRGGLQTMTALGIDTARKEAFTEARGARRGVKKVMVIVTDGESHDNYRLKQVIQDCEDENIQRFSIAILGHYNRGNLSTEKFVEEIKSIASEPTEKHFFNVSDELALVTIVKALGERIFALEATADQSAASFEMEMSQTGFSAHYSQDWVMLGAVGAYDWNGTVVMQKANQIVIPHNTTFQTEPTKMNEPLASYLGYTVNSATIPGDVLYIAGQPRYNHTGQVVIYKMEDGDVNILQTLSGEQIGSYFGSVLTTIDIDKDSYTDLLLVGAPMYMGTEKEEQGKVYVYAVNQTRFEYQMSLEPIKQTCCSSLKDNSCTKENKNEPCGARFGTAVAAVKDLNVDGFNDVVIGAPLEDDHAGAVYIYHGSGKTIRKEYAQRIPSGGDGKTLKFFGQSIHGEMDLNGDGLTDVTIGGLGGAALFWARDVAVVKVTMNFEPNKVNIQKKNCRVEGKETVCINATMCFHVKLKSKEDSVYEADLQYRVTLDSLRQISRSFFSGTQERRIQRNLTVRESECIRHSFYMLDKHDFQDSVRVTLDFNLTDPENGPVLDDALPNSVHGHIPFAKDCGNKERCVSDLTLDVSTTEKNLLIVRSQNDKFNVSLTVKNKGDSAYNTRTVVQYSPNLIFSGIEEIQKDSCESNQNITCRVGYPFLRTGDVVNFKIIFQFNTSHLSENAIIHLSATSDSEEPLESLYDNEVNISIPVKYEVGLQFYSSASEHHISVAANETVPELINSTKDIGDEINVFYTIRKRGHFPMPELRLAISFPNLTSDGYPVLYPTGWSSSDNVNCRPRSLEDPLGINSGKKMTISKSEVLKRGTIQDCSTCKIATITCHLLPSDVSQVNVSLILWKPTFIKAHFSSLNLTIRGELQSENSSLTLSSSNRKRELAIQISKDGLPGRVPLWVILLSAFAGLLLLMLLILALWKIGFFKRPLKKKMEK
Take B1: in assay [2], the binding result is “no binding”.

B2: α3-integrin (receptor, UniProt Q62470 33-1053)
chain: FNLDTRFLVVKEAVNPGSLFGYSVALHRQTERQQRYLLLAGAPRDLAVGDDYTNRTGAVYLCPLTAHKDDCERMDISEKSDPDHHIIEDMWLGVTVASQGPAGRVLVCAHRYTKVLWSGLEDQRRMVGKCYVRGNDLQLDPGDDWQTYHNEMCNSNTDYLQTGMCQLGTSGGFTQNTVYFGAPGAYNWKGNSYMIQRKDWDLSEYSYRGSEEQGNLYIGYTVQVGNAILHPTDIITVVTGAPRHQHMGAVFLLKQESGGDLQRKQVLKGTQVGAYFGSAIALADLNNDGWQDLLVGAPYYFERKEEVGGAVYVFMNQAGASFPDQPSLLLHGPSRSAFGISIASIGDINQDGFQDIAVGAPFEGLGKVYIYHSSSGGLLRQPQQIIHGEKLGLPGLATFGYSLSGKMDVDENLYPDLLVGSLSDHIVLLRARPVINILHRTLVARPAVLDPALCTATSCVQVELCFAYNQSAGNPNYRRNITLAYTLEADRDRRPPRLRFARSQSSVFHGFFSMPETHCQTLELLLMDNVRDKLRPIVIAMNYSLPLRMPDRLKLGLRSLDAYPVLNQAQAMENHTEVHFQKECGPDNKCDSNLQMRAAFLSEQLQPLSRLQYSRDTKKLFLSINVTNSPSSQRAGEDAHEALLTLEVPSALLLSSVRPSGTCQANNETILCELGNPFKRNQRMELLIAFEVIGVTLHTRDLPVLLQLSTSSHQDNLQPVLLTLQVDYTLQASLSLMNHRLQSFFGGTVMGEAAMKTAEDVGSPLKYEFQVSPVGDGLAALGTLVLGLEWPYEVTNGKWLLYPTEITIHSNGSWPCQPSGNLVNPLNLTLSDPGVTPLSPQRRRRQLDPGGDQSSPPVTLAAAKKAKSETVLTCSNGRARCVWLECPLPDTSNITNVTVKARVWNSTFIEDYKDFDRVRVDGWATLFLRTSIPTINMENKTTWFSVDIDSELVEELPAEIELWLVLVAVGAGLLLLGLIILLLWKCGFFKRARTRALYEAKRQKAEMKSQPSETERLTDDY
Regarding B2, the binding result in assay [2] is recorded as “binds”.

B3: murine Gpr126-myc tagged protein (receptor, UniProt Q6F3F9 31-1165)
chain: VPLSVCGCGSCRLVLSNPSGTFTSPCYPNDYPNTQSCSWTLRAPAGYIIQITFNDFDIEEAPNCIYDSLSLDNGESQTKFCGATAKGLSFNSSVNEMHVSFSSDFSIQKKGFNASYIRVAVSLRNQKVILPQTLDAYQVSVAKSISIPELKAFTLCFEASKVGNEGGDWTAFSYSDESLTQLLSLEKASNGYFLSISGSRCLLNNALPVKDKEDIFTENLEQLCLVWNNSWGSIGINFKKNYETVPCDSTISAVVPGDGTLLLGSDRDEVASLRGSIYNFRLWNFTMDLKALSNLSCSVSGNVIDWHNDFWSISTQALKAEGNLSCGSYLIQLPAAELTNCSELGTLCQDGIMYRISVVIHNDFNHPEVKVQTKVAEWLNSTFQNWNYTVYVVNISFHQKVGEDRMKVKRDIMDDDKRLVLWALLVYNATNNVSLNEEKIKQKLMTNNASLEDGLRLCEVDVNQLGMCSALEDPDGFSWPATLPSVYKQPCPNKPGFFMTRACLSNGTSTFWGPVDTSNCSRQSNEVANEILNQTGDGQNLTSANINSIVEKVKRIVNKEENIDITLGSTLMNIFSNILSSSDSDLLESSTEALKTIDELAFKIDLNSTPHVNIETQNLALGVSSLIPGTNAPSNFSIGLPSNNESYFQMDFGNGQTDPLASVILPPNLLENLSPEDSVLVRRAQFTFFNKTGLFQDVGSQRKVLVSYVMACSIGNITIQNLKDPVQIKIKHTRTQEVHHPICAFWDMNKNKSFGGWNTSGCVAHSDLDAGETICLCSHFTHFGVLMDLPRSASQIDGRNTKVLTFITYIGCGISAIFSAATLLTYVAFEKLRRDYPSKILMNLSSALLFLNLIFLLDGWVTSFGVAGLCTAVAALLHFFLLATFTWMGLEAIHMYIALVKVFNTYIHRYILKFCIIGWGLPALVVSIILVSRRQNEVYGKESYGKDQDDEFCWIQDPVVFYVSCAGYFGVMFFLNVAMFIVVMVQICGRNGKRSNRTLREEVLRNLRSVVSLTFLLGMTWGFAFFAWGPLNIPFMYLFSIFNSLQGLFIFIFHCAMKENVQKQWRRHLCCGRFRLADNSDWSKTATNIIKKSSDNLGKSLSSSSIGSNSTYLTSKSKSSSTTYFKRNSHSDNFS
Take B3: the binding entry in assay [3] was “binds”.
